No constants are given. Whether binding was seen depends on the method and setting. In cells and extracts the contact can be indirect. Binding can be weak; no strength is given. Where a sequence is shown, tags or fusion partners need not be part of it.
Key:
[1] = target: T1, Myc-tagged Patj (HEK293T) (Drosophila) (UniProt Q9NB04); assay: co-IP; HEK293T cells transfected with Flag-Atg9 and Myc-Patj; immunoprecipitation with anti-Flag or anti-Myc; lysis buffer 50 mM Tris-HCl pH 7.4, 150 mM NaCl, 1% Triton, 10% glycerol, 1 mM EDTA; 4°C overnight
T1 sequence: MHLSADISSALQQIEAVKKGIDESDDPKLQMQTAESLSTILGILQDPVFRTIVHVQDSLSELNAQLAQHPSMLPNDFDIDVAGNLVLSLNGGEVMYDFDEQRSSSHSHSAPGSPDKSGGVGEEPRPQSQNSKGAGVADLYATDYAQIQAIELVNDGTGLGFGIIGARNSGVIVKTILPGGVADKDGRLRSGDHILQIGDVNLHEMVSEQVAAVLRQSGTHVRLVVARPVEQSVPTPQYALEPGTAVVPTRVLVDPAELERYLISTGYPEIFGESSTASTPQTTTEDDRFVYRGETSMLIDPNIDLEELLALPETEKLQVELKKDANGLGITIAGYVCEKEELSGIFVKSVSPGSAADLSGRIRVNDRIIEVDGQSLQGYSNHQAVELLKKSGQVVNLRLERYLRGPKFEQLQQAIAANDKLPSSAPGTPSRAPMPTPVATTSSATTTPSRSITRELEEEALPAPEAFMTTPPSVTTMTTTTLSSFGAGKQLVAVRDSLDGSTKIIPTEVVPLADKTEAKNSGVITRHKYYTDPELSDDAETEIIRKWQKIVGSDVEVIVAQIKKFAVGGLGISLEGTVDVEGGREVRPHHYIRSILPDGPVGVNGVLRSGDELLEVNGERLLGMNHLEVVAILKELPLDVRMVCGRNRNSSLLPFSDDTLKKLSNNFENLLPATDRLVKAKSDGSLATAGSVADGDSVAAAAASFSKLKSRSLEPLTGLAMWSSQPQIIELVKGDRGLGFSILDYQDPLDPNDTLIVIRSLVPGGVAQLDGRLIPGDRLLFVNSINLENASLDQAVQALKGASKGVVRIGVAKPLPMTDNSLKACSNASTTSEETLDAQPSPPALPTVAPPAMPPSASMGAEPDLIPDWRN

[2] = target: GST-fused C-terminus (residues 668-845) of Atg9 (Drosophila); assay: pull-down; lysates of cells expressing Myc-Patj incubated with GST or GST-Atg9-C (amino acids 668-845); Western blot with anti-Myc; only the target purified
[3] = target: Flag-tagged Atg9 (Drosophila); assay: co-IP; HEK293T cells transfected with Flag-Atg9 and Myc-Patj; immunoprecipitation with anti-Flag or anti-Myc; lysis buffer 50 mM Tris-HCl pH 7.4, 150 mM NaCl, 1% Triton, 10% glycerol, 1 mM EDTA; 4°C overnight
Flag-TSC2 (Drosophila) [4] = assay: co-IP; S2 cells transfected with pWA-Gal4 and two pUAS plasmids (Flag-TSC2 with Myc-Patj or with GFP-Atg9); immunoprecipitation with anti-Flag, anti-Myc or anti-GFP; lysis buffer 50 mM Tris-HCl pH 7.4, 150 mM NaCl, 1% Triton
Flag-TSC2 (Drosophila) [5] = assay: co-IP; S2 cells treated with dsRNAs targeting luciferase or Atg1, transfected with pWA-Gal4, pUAS-GFP-Atg9, pUAS-Myc-Patj and pUAS-Flag-TSC2 together; immunoprecipitation with anti-Flag

With Flag-tagged Atg9 (Drosophila) as the molecule, how does the binding [1] read?
The binding was “binds”.

B1: Myc-tagged Patj in the lysate used for the GST pull-down (protein, UniProt Q9NB04 1-871)
chain: T1 sequence
How did the binding [2] turn out when B1 was run?
The binding was “binds”.

B2: Myc-tagged Patj (HEK293T) (protein, UniProt Q9NB04 1-871)
chain: T1 sequence
Which binding [3] does the source give for B2 here?
The binding was “binds”.

B3: Myc-tagged Patj (S2 cells) (protein, UniProt Q9NB04 1-871)
chain: T1 sequence
Which results are given for B3?
binding (Flag-TSC2 (Drosophila) [4]): binds; binding (Flag-TSC2 (Drosophila) [5]): binds
